Laboratory results: PMC5642548
Results are given in words; binding and its absence hold for the method and conditions named. In cells and extracts the contact can be indirect. Some binding calls cover weakened binding; strength is not graded here.

Target: TGIF1 (TGFB induced factor homeobox 1), full length, Flag-tagged (human (cDNA from HEK293T)), Q15583
Experiment: co-IP; HEK293FT cells co-transfected for 48 h; lysate in TNE buffer (20 mM Tris-HCl pH 7.4, 150 mM NaCl, 2 mM EDTA, 1 % Triton X-100); precipitated with anti-Flag antibody and protein A-Sepharose overnight at 4°C; anti-Myc immunoblotting
Settings: remark: other sources report otherwise

binding: binds
B1: β-catenin, P35222 1-781 (protein)
chain: MATQADLMELDMAMEPDRKAAVSHWQQQSYLDSGIHSGATTTAPSLSGKGNPEEEDVDTSQVLYEWEQGFSQSFTQEQVADIDGQYAMTRAQRVRAAMFPETLDEGMQIPSTQFDAAHPTNVQRLAEPSQMLKHAVVNLINYQDDAELATRAIPELTKLLNDEDQVVVNKAAVMVHQLSKKEASRHAIMRSPQMVSAIVRTMQNTNDVETARCTAGTLHNLSHHREGLLAIFKSGGIPALVKMLGSPVDSVLFYAITTLHNLLLHQEGAKMAVRLAGGLQKMVALLNKTNVKFLAITTDCLQILAYGNQESKLIILASGGPQALVNIMRTYTYEKLLWTTSRVLKVLSVCSSNKPAIVEAGGMQALGLHLTDPSQRLVQNCLWTLRNLSDAATKQEGMEGLLGTLVQLLGSDDINVVTCAAGILSNLTCNNYKNKMMVCQVGGIEALVRTVLRAGDREDITEPAICALRHLTSRHQEAEMAQNAVRLHYGLPVVVKLLHPPSHWPLIKATVGLIRNLALCPANHAPLREQGAIPRLVQLLVRAHQDTQRRTSMGGTQQQFVEGVRMEEIVEGCTGALHILARDVHNRIVIRGLNTIPLFVQLLYSPIENIQRVAAGVLCELAQDKEAAEAIEAEGATAPLTELLHSRNEGVATYAAAVLFRMSEDKPQDYKKRLSVELTSSLFRTEPMAWNETADLGLDIGAQGEPLGYRQDDPSYRSFHSGGYGQDALGMDPMMEHEMGGHHPGADYPVDGLPDLGHAQDLMDGLPPGDSNQLAWFDTDL
